# ± gives the standard deviation of the averaged measurements. The list shows a part of the results.
# Experiments:
# Test in all cases: NP40-soluble protein abundance relative to vehicle (solubility fold change) (ratio); higher = more soluble protein in presence of GTP
# [1] = target: T1, UniProt Q02040
# T1 sequence (whole entry): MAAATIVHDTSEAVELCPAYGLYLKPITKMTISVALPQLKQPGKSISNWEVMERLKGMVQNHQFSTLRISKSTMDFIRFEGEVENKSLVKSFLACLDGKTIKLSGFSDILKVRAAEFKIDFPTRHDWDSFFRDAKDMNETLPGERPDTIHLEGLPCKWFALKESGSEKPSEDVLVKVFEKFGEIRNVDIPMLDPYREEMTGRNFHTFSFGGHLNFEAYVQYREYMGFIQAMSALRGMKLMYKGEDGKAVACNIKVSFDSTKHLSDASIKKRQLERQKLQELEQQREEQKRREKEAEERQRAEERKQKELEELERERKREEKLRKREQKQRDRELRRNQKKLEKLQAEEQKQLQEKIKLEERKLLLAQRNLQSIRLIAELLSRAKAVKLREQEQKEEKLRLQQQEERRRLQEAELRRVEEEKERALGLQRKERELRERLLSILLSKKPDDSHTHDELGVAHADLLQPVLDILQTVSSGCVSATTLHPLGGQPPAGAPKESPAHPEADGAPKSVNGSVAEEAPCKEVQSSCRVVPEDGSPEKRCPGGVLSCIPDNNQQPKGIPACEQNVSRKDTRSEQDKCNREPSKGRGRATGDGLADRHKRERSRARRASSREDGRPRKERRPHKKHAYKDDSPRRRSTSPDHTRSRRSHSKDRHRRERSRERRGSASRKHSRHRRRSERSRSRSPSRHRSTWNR
# Outline: (§1)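 Values are fold changes against the detergent-processed vehicle, based on vsn-normalised intensities. Jurkat crude lysate was treated at eight concentrations from 0.1 to 10 mM (10 min at room temperature, then 3 min at 37 °C), solubilised with 0.8% NP40 and benzonase, ultracentrifuged and analysed by TMT-labelled LC-MS/MS over three independent experiments.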
# [2] = target: T2, UniProt Q08170 and related entries
# T2 sequence (whole entry): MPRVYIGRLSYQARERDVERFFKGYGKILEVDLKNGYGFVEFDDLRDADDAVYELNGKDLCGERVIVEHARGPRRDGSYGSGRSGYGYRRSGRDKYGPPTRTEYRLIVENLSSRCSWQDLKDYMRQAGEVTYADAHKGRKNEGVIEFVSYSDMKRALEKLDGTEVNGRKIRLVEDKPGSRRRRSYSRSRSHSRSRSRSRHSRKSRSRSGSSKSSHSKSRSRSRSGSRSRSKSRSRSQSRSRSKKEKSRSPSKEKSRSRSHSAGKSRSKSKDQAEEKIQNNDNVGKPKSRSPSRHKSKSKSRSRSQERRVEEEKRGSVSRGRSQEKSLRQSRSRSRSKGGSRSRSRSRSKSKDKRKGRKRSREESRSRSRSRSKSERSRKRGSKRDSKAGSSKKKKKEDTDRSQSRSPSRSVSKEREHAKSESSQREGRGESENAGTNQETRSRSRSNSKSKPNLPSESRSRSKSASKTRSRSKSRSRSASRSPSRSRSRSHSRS
# Outline: as §1
# [3] = target: T3, UniProt Q12974
# T3 sequence (whole entry): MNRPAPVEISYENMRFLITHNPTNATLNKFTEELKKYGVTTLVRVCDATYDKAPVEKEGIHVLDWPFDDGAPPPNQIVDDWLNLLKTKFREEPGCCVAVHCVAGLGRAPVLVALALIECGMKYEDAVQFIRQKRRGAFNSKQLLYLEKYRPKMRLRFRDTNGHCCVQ
# Outline: as §1
# [4] = target: T4, UniProt Q13137 and related entries
# T4 sequence (whole entry): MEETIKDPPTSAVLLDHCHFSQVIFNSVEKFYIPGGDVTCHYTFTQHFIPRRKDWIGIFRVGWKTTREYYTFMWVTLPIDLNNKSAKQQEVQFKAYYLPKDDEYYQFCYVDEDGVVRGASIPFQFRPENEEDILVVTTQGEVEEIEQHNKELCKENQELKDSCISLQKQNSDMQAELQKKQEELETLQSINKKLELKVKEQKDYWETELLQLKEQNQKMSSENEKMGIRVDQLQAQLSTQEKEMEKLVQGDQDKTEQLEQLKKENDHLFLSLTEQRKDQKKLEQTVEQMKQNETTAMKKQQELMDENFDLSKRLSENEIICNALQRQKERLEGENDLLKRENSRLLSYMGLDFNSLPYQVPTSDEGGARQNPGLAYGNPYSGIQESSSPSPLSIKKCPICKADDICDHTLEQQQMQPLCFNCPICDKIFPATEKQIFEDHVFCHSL
# Outline: as §1
# [5] = target: T5, UniProt Q13438-2|Q13438-3|Q13438-5|Q13438-6|Q13438-7
# T5 sequence (whole entry): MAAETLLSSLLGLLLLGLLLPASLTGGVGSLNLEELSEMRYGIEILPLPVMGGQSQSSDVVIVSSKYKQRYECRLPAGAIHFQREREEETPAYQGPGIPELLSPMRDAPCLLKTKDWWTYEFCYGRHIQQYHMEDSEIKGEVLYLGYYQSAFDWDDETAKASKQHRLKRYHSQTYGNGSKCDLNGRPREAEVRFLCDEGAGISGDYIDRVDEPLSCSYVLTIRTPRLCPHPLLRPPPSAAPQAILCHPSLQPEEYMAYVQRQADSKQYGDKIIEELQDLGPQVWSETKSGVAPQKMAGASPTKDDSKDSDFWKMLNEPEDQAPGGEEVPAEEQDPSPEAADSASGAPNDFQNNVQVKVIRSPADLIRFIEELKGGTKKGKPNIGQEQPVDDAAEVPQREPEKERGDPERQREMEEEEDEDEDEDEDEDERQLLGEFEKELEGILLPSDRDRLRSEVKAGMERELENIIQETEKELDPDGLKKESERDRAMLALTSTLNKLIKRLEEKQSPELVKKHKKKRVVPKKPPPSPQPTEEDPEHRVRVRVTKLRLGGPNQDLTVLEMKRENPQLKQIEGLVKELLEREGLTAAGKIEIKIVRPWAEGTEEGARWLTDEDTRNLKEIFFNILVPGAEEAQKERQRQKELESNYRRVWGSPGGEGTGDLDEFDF
# Outline: as §1
# [6] = target: T6, UniProt Q13608 and related entries
# T6 sequence (whole entry): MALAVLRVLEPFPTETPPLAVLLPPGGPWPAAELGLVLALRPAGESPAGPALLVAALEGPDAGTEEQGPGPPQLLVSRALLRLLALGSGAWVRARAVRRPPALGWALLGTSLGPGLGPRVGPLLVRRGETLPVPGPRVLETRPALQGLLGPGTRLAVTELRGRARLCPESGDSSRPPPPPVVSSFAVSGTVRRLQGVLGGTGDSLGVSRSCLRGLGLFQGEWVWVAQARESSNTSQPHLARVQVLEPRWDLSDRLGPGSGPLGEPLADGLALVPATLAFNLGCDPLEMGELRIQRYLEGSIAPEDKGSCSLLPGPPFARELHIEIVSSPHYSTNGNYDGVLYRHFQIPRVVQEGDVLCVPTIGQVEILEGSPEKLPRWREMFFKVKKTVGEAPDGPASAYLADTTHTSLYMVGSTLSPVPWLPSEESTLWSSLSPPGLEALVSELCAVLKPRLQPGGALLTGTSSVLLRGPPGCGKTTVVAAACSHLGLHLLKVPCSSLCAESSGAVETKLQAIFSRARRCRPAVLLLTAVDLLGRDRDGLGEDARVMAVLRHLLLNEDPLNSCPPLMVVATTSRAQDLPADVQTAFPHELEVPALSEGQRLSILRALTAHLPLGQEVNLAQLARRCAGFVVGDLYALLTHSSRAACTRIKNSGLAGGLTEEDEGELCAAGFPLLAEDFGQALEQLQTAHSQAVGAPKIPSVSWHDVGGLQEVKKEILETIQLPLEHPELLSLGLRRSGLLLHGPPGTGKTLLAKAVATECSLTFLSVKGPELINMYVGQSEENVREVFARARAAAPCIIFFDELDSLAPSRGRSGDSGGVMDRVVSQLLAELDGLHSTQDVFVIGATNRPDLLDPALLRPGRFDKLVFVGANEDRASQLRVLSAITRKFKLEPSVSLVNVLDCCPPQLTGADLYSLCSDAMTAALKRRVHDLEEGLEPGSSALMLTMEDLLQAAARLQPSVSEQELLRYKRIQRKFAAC
# Outline: as §1
structure (smiles),measurement,setting,value
Nc1nc2c(ncn2[C@@H]2O[C@H](COP(=O)(O)OP(=O)(O)OP(=O)(O)O)[C@@H](O)[C@H]2O)c(=O)[nH]1 [guanosine triphosphate],NP40-soluble protein abundance,[1]; concentration: 0.1mM,1.05 ± 0.093
same,NP40-soluble protein abundance,[1]; concentration: 0.5mM,1.1 ± 0.025
same,NP40-soluble protein abundance,[1]; concentration: 1mM,1.09 ± 0.086
same,NP40-soluble protein abundance,[1]; concentration: 2mM,1.23 ± 0.036
same,NP40-soluble protein abundance,[1]; concentration: 4mM,1.31 ± 0.071
same,NP40-soluble protein abundance,[1]; concentration: 6mM,1.36 ± 0.07
same,NP40-soluble protein abundance,[1]; concentration: 8mM,1.39 ± 0.071
same,NP40-soluble protein abundance,[1]; concentration: 10mM,1.48 ± 0.072
same,NP40-soluble protein abundance,[2]; concentration: 0.1mM,0.928 ± 0.042
same,NP40-soluble protein abundance,[2]; concentration: 0.5mM,1.23 ± 0.055
same,NP40-soluble protein abundance,[2]; concentration: 1mM,1.27 ± 0.028
same,NP40-soluble protein abundance,[2]; concentration: 2mM,1.15 ± 0.052
same,NP40-soluble protein abundance,[2]; concentration: 4mM,0.94 ± 0.034
same,NP40-soluble protein abundance,[2]; concentration: 6mM,1.09 ± 0.042
same,NP40-soluble protein abundance,[2]; concentration: 8mM,1.2 ± 0.053
same,NP40-soluble protein abundance,[2]; concentration: 10mM,1.08 ± 0.035
same,NP40-soluble protein abundance,[3]; concentration: 0.1mM,0.958 ± 0.018
same,NP40-soluble protein abundance,[3]; concentration: 0.5mM,0.957 ± 0.01
same,NP40-soluble protein abundance,[3]; concentration: 1mM,0.896 ± 0.03
same,NP40-soluble protein abundance,[3]; concentration: 2mM,0.902 ± 0.042
same,NP40-soluble protein abundance,[3]; concentration: 4mM,0.875 ± 0.083
same,NP40-soluble protein abundance,[3]; concentration: 6mM,0.866 ± 0.024
same,NP40-soluble protein abundance,[3]; concentration: 8mM,0.821 ± 0.069
same,NP40-soluble protein abundance,[3]; concentration: 10mM,0.84 ± 0.072
same,NP40-soluble protein abundance,[4]; concentration: 0.1mM,0.973 ± 0.053
same,NP40-soluble protein abundance,[4]; concentration: 0.5mM,0.941 ± 0.07
same,NP40-soluble protein abundance,[4]; concentration: 1mM,0.956 ± 0.098
same,NP40-soluble protein abundance,[4]; concentration: 2mM,0.912 ± 0.09
same,NP40-soluble protein abundance,[4]; concentration: 4mM,0.925 ± 0.097
same,NP40-soluble protein abundance,[4]; concentration: 6mM,0.914 ± 0.083
same,NP40-soluble protein abundance,[4]; concentration: 8mM,0.979 ± 0.066
same,NP40-soluble protein abundance,[4]; concentration: 10mM,0.936 ± 0.08
same,NP40-soluble protein abundance,[5]; concentration: 0.1mM,0.96 ± 0.024
same,NP40-soluble protein abundance,[5]; concentration: 0.5mM,0.965 ± 0.013
same,NP40-soluble protein abundance,[5]; concentration: 1mM,0.989 ± 0.028
same,NP40-soluble protein abundance,[5]; concentration: 2mM,0.978 ± 0.075
same,NP40-soluble protein abundance,[5]; concentration: 4mM,0.968 ± 0.012
same,NP40-soluble protein abundance,[5]; concentration: 6mM,0.957 ± 0.025
same,NP40-soluble protein abundance,[5]; concentration: 8mM,1.02 ± 0.076
same,NP40-soluble protein abundance,[5]; concentration: 10mM,1 ± 0.087
same,NP40-soluble protein abundance,[6]; concentration: 0.1mM,1.17 ± 0.11
same,NP40-soluble protein abundance,[6]; concentration: 0.5mM,1.24 ± 0.13
same,NP40-soluble protein abundance,[6]; concentration: 1mM,1.14 ± 0.19
same,NP40-soluble protein abundance,[6]; concentration: 2mM,1.22 ± 0.16
same,NP40-soluble protein abundance,[6]; concentration: 4mM,1.1 ± 0.1
same,NP40-soluble protein abundance,[6]; concentration: 6mM,1.17 ± 0.21
same,NP40-soluble protein abundance,[6]; concentration: 8mM,1.11 ± 0.12
same,NP40-soluble protein abundance,[6]; concentration: 10mM,1.23 ± 0.16

# An excerpt of these results, as tab-separated lines:
structure (smiles)	measurement	setting	value
Nc1nc2c(ncn2[C@@H]2O[C@H](COP(=O)(O)OP(=O)(O)OP(=O)(O)O)[C@@H](O)[C@H]2O)c(=O)[nH]1 [guanosine triphosphate]	NP40-soluble protein abundance	[3]; concentration: 10mM	0.84 ± 0.072
same	NP40-soluble protein abundance	[5]; concentration: 0.1mM	0.96 ± 0.024
same	NP40-soluble protein abundance	[5]; concentration: 4mM	0.968 ± 0.012
